# Reference: US20080139456A1 (priority 2005, published 2008)
# Key:
# [1] = general procedure: Fmoc solid-phase peptide synthesis; 4-(4-formyl-3-methoxyphenoxy)butyryl-NovaGel HL resin, reductively aminated with 1-naphthylmethylamine; HATU/HOAt (Gly, AllylGly); DIPCDI/HOBt (Asn(Trt)); DIPCDI/HOAt (Ac6c, pTyr mimet); settings: for cyclisation yield: cyclisation step
# [2] = general procedure: Fmoc solid-phase peptide synthesis; N-(1-naphthylmethylamino)-modified NovaGel HL resin 14; HATU/HOAt (Gly, AllylGly); DIPCDI/HOBt (Asn(Trt)); DIPCDI/HOAt (Ac6c, pTyr mimet); settings: whole synthesis, scale 0.030 mmol
Substance,step yield ([1]; coupling step) [% yield],cyclisation yield [1] [% yield],other results
"[(2R,3R)-3-(4-Di-tert-butyloxyphosphonomethyl)phenyl-2-(tert-butyloxycarbonylmethyl)pent-4-enyl]-AC6c-L-Asn-L-AllylGly-(1-naphthyl)methyl amide",12,,
[(2R)-3-(4-Dihydroxyphosphonomethyl)phenyl-2-(hydroxylcarbonylmethyl) propionyl]-Ac6c-L-Asn-Gly-(1-naphthyl)methyl Amide,,,"isolated mass [2]: 10 mg; isolated yield ([1]; whole synthesis, based on resin substitution, scale 0.030 mmol): 45% yield based on resin substitution"
"[(2R,3R)-3-(4-Di-tert-butyloxyphosphonomethyl)phenyl-2-(tert-butyloxycarbonylmethyl)pent-4-enyl]-AC6c-L-Asn-D-AllylGly-(1-naphthyl)methyl amine",45,,
"Cyclo{[(2R,3R)-3-(4-di-tert-butyloxyphosphonomethyl)phenyl-2-(tert-butyloxycarbonylmethyl)pent-4-enyl]-AC6c-L-Asn-D-AllylGly}-(1-naphthyl)methyl amide",,52,
"Cyclo{[(2R,3R)-3-(4-di-tert-butyloxyphosphonomethyl)phenyl-2-(tert-butyloxycarbonylmethyl)pent-4-enyl]-AC6c-L-Asn-L-AllylGly}-(1-naphthyl)methyl amide",,73,
"Cyclo{[(2R,3R)-3-(4-dihydroxyphosphonomethyl)phenyl-2-(hydroxycarbonylmethyl)pent-4-enyl]-AC6c-L-Asn-D-AllylGly}-(1-naphthyl)methyl amide",,,step yield ([1]; late stage modification step): 46% yield
